Assay results published in PMC7819943, “Rice protein-binding microarrays: a tool to detect cis-acting elements near promoter regions in rice”.
This is one part of the list.

Each sequence was assayed against T1, OsSMF1 (Oryza sativa, UniProt Q6ZLB0 1-436) (assay: protein-binding microarray (RPBM); PBS, 2% BSA, 51.3 ng/ul salmon testes DNA, 50 uM zinc acetate, 200 nM TF, 25 C, 1 h; high values mean tight binding). Conditions: protein: recombinant; tags: N-terminal polyhistidine and DsRed monomer fusion (pET32a); chain copies: 2; label: CyDye5-dUTP incorporated in the synthesized complementary strand; 3' TTTTT single-stranded linker to array surface; dsDNA, one strand shown.
T1 sequence: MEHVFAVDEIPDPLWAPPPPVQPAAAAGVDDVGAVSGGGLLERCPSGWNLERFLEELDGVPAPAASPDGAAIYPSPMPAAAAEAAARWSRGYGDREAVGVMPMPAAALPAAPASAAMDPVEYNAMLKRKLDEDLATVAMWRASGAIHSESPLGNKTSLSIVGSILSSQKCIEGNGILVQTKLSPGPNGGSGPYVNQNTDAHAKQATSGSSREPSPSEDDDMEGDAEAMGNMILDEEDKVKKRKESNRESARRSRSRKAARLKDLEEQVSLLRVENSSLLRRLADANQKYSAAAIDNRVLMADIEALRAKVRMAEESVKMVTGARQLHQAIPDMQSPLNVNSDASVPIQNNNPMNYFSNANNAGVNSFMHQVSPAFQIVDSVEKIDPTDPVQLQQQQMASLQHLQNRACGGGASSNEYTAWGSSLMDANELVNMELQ
How it was run: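 In PBS with 2% BSA, salmon testes DNA and 50 µM zinc acetate, 200 nM protein was incubated on a custom Agilent array at 25 °C for 1 h and then washed off. The array had been made double-stranded by primer extension with Cy5-dUTP and blocked with 2% BSA. The proteins were transcription factors fused N-terminally to polyhistidine and DsRed, expressed in E. coli BL21-CodonPlus and purified on Ni–NTA. The binding signal is per-feature fluorescence intensity (arbitrary units) from an Axon 4000B scanner.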

Sequence	binding signal
TTAATAATACGCTTACTTTGACACCGACGTATGACATCATCGGAGTCACCTAGTGCAG	6360 fluorescence intensity (a.u.)
ATGGGCCGAGATGGTACTGTTGTATGGAGATGGGCTGACTCGGAGTCACCTAGTGCAG	4340 fluorescence intensity (a.u.)
TTTGCAAAATTTGCTGATGTGGCGCTCCTAACTTTCAACCCGGAGTCACCTAGTGCAG	13500 fluorescence intensity (a.u.)
ACCGTCCTACATGGCTGTACAGCGTGGCTGCATATTTGCTCGGAGTCACCTAGTGCAG	3530 fluorescence intensity (a.u.)
CTGCCGCTGACGGTGTTCTTCAGCCACCAAGTTCACGCCGCGGAGTCACCTAGTGCAG	3430 fluorescence intensity (a.u.)
ATGCATATTATTGTGGTTGATTGATGAATTTTAAACTCAGCGGAGTCACCTAGTGCAG	17800 fluorescence intensity (a.u.)
AACATGTATTTAACCGTGGTTTGGCTGACTAGCACCGAGACGGAGTCACCTAGTGCAG	3300 fluorescence intensity (a.u.)
CATTATCCAACTCGAACAGCGCGAGCGTGGGACACGTCACCGGAGTCACCTAGTGCAG	19600 fluorescence intensity (a.u.)
TGGGCACAGCCATGTTCATGCCAGCTAAGATTTCTCATCACGGAGTCACCTAGTGCAG	3980 fluorescence intensity (a.u.)
AATTAATTTGTTCCTTTCGTCAGGGCTTGAGTCATGGAGTCGGAGTCACCTAGTGCAG	3150 fluorescence intensity (a.u.)
TGTTTCTTTTCTTCAGACTAGTCACCTACGGTTTACTATTCGGAGTCACCTAGTGCAG	3720 fluorescence intensity (a.u.)
TCCCATGCTAACTCAGCCACCACGTCGAACAAATCGGGGTCGGAGTCACCTAGTGCAG	3380 fluorescence intensity (a.u.)
ATCCCACCGCCCAGCGCCGCACCTCCTCTCCTCGTGCTCTCGGAGTCACCTAGTGCAG	3220 fluorescence intensity (a.u.)
ATGACACCACTCTTGCTGACGTGGTCGAAAGATTCAGTTTCGGAGTCACCTAGTGCAG	16900 fluorescence intensity (a.u.)
AAAATGGCCAAAGAGGGCAGTAATGCGACGTCACATTAGCCGGAGTCACCTAGTGCAG	4490 fluorescence intensity (a.u.)
GAGGTGTCACTCGCGCGGTGCACCGCTGCACCATCACCGCCGGAGTCACCTAGTGCAG	5580 fluorescence intensity (a.u.)
CCGCCAGGGCTCCATCGCTGGTGGTGTCACCTCGCCTAAACGGAGTCACCTAGTGCAG	3520 fluorescence intensity (a.u.)
CGTCGTCTTCATCGACCTGACTCACCATTGACGAGTGCAGCGGAGTCACCTAGTGCAG	9270 fluorescence intensity (a.u.)
CGCATGTACACGTACTCCTTTCCCCTCCACACCCTCCGAACGGAGTCACCTAGTGCAG	5620 fluorescence intensity (a.u.)
ATTCCATATTTCCATTCCACACGTCTTGAGAGCTAATCTTCGGAGTCACCTAGTGCAG	3400 fluorescence intensity (a.u.)
TGTTTCCGTAATATGTGGCAGATTTATTGCAACAGTGCGTCGGAGTCACCTAGTGCAG	3400 fluorescence intensity (a.u.)

Sequence	binding signal
TCTCACCGCCCCACGCATTTCCTCCTCCTTGCCTCGCCTTCGGAGTCACCTAGTGCAG	3190 fluorescence intensity (a.u.)
ATCATTGAGGTCAAACTTTATCCACCTCATCATTATTCAGCGGAGTCACCTAGTGCAG	4390 fluorescence intensity (a.u.)
ATGGCGCTGTCCACATGCGCCACCGTGGCACGCGCCGCGCCGGAGTCACCTAGTGCAG	8760 fluorescence intensity (a.u.)
AACCACCAGAAACGCACACGTCGCGCACGCCTGAGCAGACCGGAGTCACCTAGTGCAG	3250 fluorescence intensity (a.u.)
CACCGCCACGTGGGCCCCACCTGTCATCCACACGGACCTGCGGAGTCACCTAGTGCAG	18000 fluorescence intensity (a.u.)
CCAGCTCCCCATCCCAGATGAGGTGGCAACAACACTGCTTCGGAGTCACCTAGTGCAG	8280 fluorescence intensity (a.u.)
CGACATGTTGAGATGCGGGTTGCGTCTGCATGGTGCGTCGCGGAGTCACCTAGTGCAG	3830 fluorescence intensity (a.u.)
AATTATAAAATCCAGAAAATAAACTAAGAACTGAAAACTACGGAGTCACCTAGTGCAG	5060 fluorescence intensity (a.u.)
GTCGGGGCGCGTGCGCAGCAGCGCGAAGCGGAGCGGGAGACGGAGTCACCTAGTGCAG	4120 fluorescence intensity (a.u.)
TCCTCCTCTCACCACTTGGAAGCATCCACCTCATTACATCCGGAGTCACCTAGTGCAG	5790 fluorescence intensity (a.u.)
TCCGTCCATGATAGTAGATGGTAGTGACAGTGGACATGTCCGGAGTCACCTAGTGCAG	3320 fluorescence intensity (a.u.)
ATATAATAGCTAATCAAACACTAGTCCGAAGACGTAGTATCGGAGTCACCTAGTGCAG	18800 fluorescence intensity (a.u.)
ATACATAGCCATATATAAAATTAATGTGATAACATATTCTCGGAGTCACCTAGTGCAG	3660 fluorescence intensity (a.u.)
CCTCTGCAATCGGTCCAACTGCTGACTACTCCCTACATCTCGGAGTCACCTAGTGCAG	4090 fluorescence intensity (a.u.)
CACAGTAACCCCACTGCCACACATCACAGATTTACATATCCGGAGTCACCTAGTGCAG	3170 fluorescence intensity (a.u.)
CTCTCTAGCTATAGCTATAGCTTACCTCATCACCGTCGTCCGGAGTCACCTAGTGCAG	3540 fluorescence intensity (a.u.)
CAACGATGTAGCTCGCTGACCTTTAAATAGGCGGTTGAGGCGGAGTCACCTAGTGCAG	5780 fluorescence intensity (a.u.)
TACGTTTCTCAGTGTATCAATCTGTGGATCATGCTCGCAGCGGAGTCACCTAGTGCAG	3860 fluorescence intensity (a.u.)
TCTCTTCTCGGGCATCAGGCGTCAGCCCTTAAGGCGCCACCGGAGTCACCTAGTGCAG	3150 fluorescence intensity (a.u.)
ATTGGACGATAAAATATTGGACGGTGATTCACCTTTTAGACGGAGTCACCTAGTGCAG	3170 fluorescence intensity (a.u.)
ATAATGCAACGATTTCGTAGTCACGTACAGACACCGTCTCCGGAGTCACCTAGTGCAG	4250 fluorescence intensity (a.u.)

Sequence	binding signal
AAAATCTGACAAGAAACAAATCGATAGACATCATGGGTTCCGGAGTCACCTAGTGCAG	16500 fluorescence intensity (a.u.)
GTCATGTGAAGTAGCGCCTTGAGTCATCATCGTCAACGCTCGGAGTCACCTAGTGCAG	7390 fluorescence intensity (a.u.)
TCATTTCCAATGCATTCTTAATTTAGAGGAAGGATAATAGCGGAGTCACCTAGTGCAG	3570 fluorescence intensity (a.u.)
TGTTGAATGAACGGTAGGCTGACGGCGATGGCATTTCTGGCGGAGTCACCTAGTGCAG	7580 fluorescence intensity (a.u.)
TGGATATTTTCTCCGTCGATTGGTACAGTACACAGGTGTGCGGAGTCACCTAGTGCAG	3190 fluorescence intensity (a.u.)
GAGATCGATCGGGCGGAGGCGCCGCGCCACGCCGCGGCCACGGAGTCACCTAGTGCAG	3330 fluorescence intensity (a.u.)
CCTTCTCTCTCACCTGCGCACACGTACTGTACATATATACCGGAGTCACCTAGTGCAG	4500 fluorescence intensity (a.u.)
AATGCTGAAGTTGTTGACATTCGCTACCACGCCCGAGTCTCGGAGTCACCTAGTGCAG	3190 fluorescence intensity (a.u.)
CTAATACGATATAAACATTATTATCTATCCGTATTGGCTCCGGAGTCACCTAGTGCAG	33900 fluorescence intensity (a.u.)
AGAAATTGAATTGCTTGCTACAGAGAAGCTAGAAGAGTTTCGGAGTCACCTAGTGCAG	64800 fluorescence intensity (a.u.)
TGTCGAGTGAAAGTTGACGTACTCAAGATCATCCATATGCCGGAGTCACCTAGTGCAG	3170 fluorescence intensity (a.u.)
TTTTGTCCATTTTCTGGATTCTACGACTACAATTTCTTAGCGGAGTCACCTAGTGCAG	3160 fluorescence intensity (a.u.)
CACGGCACCGGATCCGGTCGGCGCCGACGCCATGCCCTGACGGAGTCACCTAGTGCAG	34800 fluorescence intensity (a.u.)
ACAGCTATGGGAATTGTCCAAAACACCCTCAACCGTCATTCGGAGTCACCTAGTGCAG	31500 fluorescence intensity (a.u.)
TGTCCTAATTAACCCGTCAGTCCACTTCTCCTTCTTCTTCCGGAGTCACCTAGTGCAG	3710 fluorescence intensity (a.u.)
TCAATCTGGCGGGGTTTATTTGTGACCCTCGATCGGTCAACGGAGTCACCTAGTGCAG	4060 fluorescence intensity (a.u.)
CATCTGAACTGAAGGCCCAATACGTCAGCGAGGGACGGCCCGGAGTCACCTAGTGCAG	5780 fluorescence intensity (a.u.)
CATGTTTGGCAGTGTTCGTTCCCACGTTTCGATATAGCGACGGAGTCACCTAGTGCAG	3360 fluorescence intensity (a.u.)
TTGAGAGACTTTGATGCTGAATCAATGACTCACATGTGCTCGGAGTCACCTAGTGCAG	10300 fluorescence intensity (a.u.)
TAATGCCACCTAAGCGCCACGTCAACGTCGCGTGTAAAGGCGGAGTCACCTAGTGCAG	28800 fluorescence intensity (a.u.)
ATTGAACATTCGTCGCAGAGAGGAATGCACTGCCGCGTGGCGGAGTCACCTAGTGCAG	3530 fluorescence intensity (a.u.)

Sequence	binding signal
TTAGATTATTGAGTCAGATTACTATAAGCTAGATTATTATCGGAGTCACCTAGTGCAG	3770 fluorescence intensity (a.u.)
ATCGGCAGAGGCGACACCAGCGTGCCTCCACATCGGCTTCCGGAGTCACCTAGTGCAG	3990 fluorescence intensity (a.u.)
GGGCAGATCCGGCGCCCGACGCCGGCGGATCCGCCGTCGTCGGAGTCACCTAGTGCAG	32500 fluorescence intensity (a.u.)
ATTTTACAATGTGTAGTATGCATTCGTTGTCAATCTTTCTCGGAGTCACCTAGTGCAG	3650 fluorescence intensity (a.u.)
ATGAGAGATAGATGACACGTCAGAAGCCAGAGCGAATTGGCGGAGTCACCTAGTGCAG	11500 fluorescence intensity (a.u.)
TAATTCGGGTGGTTGAGTAGCGCGCGTGGCGTAATTGCTGCGGAGTCACCTAGTGCAG	3830 fluorescence intensity (a.u.)
GCTGGATTTCCTACTAATGTTAGTGAGAACACTCTAGAAACGGAGTCACCTAGTGCAG	4370 fluorescence intensity (a.u.)
ATATGCAGGGCCGAATGTGGAAGACGATATATGCGCTTAACGGAGTCACCTAGTGCAG	22100 fluorescence intensity (a.u.)
CAGTCAGTCAGTAGGTTCCCAGAATTTTCTCCCTGCAAACCGGAGTCACCTAGTGCAG	50200 fluorescence intensity (a.u.)
ACTGCCACTACCACTACCACTACCACTACCACCACCACACCGGAGTCACCTAGTGCAG	4090 fluorescence intensity (a.u.)
GAATCAATTGTCCATTGGATTATCGCAGCTGCAATCAGTGCGGAGTCACCTAGTGCAG	3290 fluorescence intensity (a.u.)
TCCCAATCAAATTGCCATGTAAGGGCCACGTTGGGACGAACGGAGTCACCTAGTGCAG	4600 fluorescence intensity (a.u.)
CTTCCGGGTGACTTGCTGAGTAATGTGGTTGTACTTATTCCGGAGTCACCTAGTGCAG	4170 fluorescence intensity (a.u.)
GTTGCGCACTTTATATATACACGTAGCAAACGGTTCAATTCGGAGTCACCTAGTGCAG	3950 fluorescence intensity (a.u.)
CTCGGCCGCGGCCGGGGCACCGGAAGAGGGACCTCAGCGGCGGAGTCACCTAGTGCAG	26500 fluorescence intensity (a.u.)
TCGTCCCGCCTCCCTGCCTCGCTCGCAGCACCGCCGGGTCCGGAGTCACCTAGTGCAG	3430 fluorescence intensity (a.u.)
CCGGCGCGCTACCCTCGCTTTCGCTTGCTGCAAGAGCGCACGGAGTCACCTAGTGCAG	3240 fluorescence intensity (a.u.)
TCTAAATTCTTATATTTTGGGATGGAAAGAGTATATGTTACGGAGTCACCTAGTGCAG	7380 fluorescence intensity (a.u.)
CATACGGTAATCCCAGCCGCCTGCGTCACCTTCTGAATCGCGGAGTCACCTAGTGCAG	8760 fluorescence intensity (a.u.)
TGGATGCAGTTTCAATGAACCCCGCGTCACACTGGGGACTCGGAGTCACCTAGTGCAG	4460 fluorescence intensity (a.u.)
CCCAAATTGCATATGTGCATCTTGCCATGGTGCCATGGCACGGAGTCACCTAGTGCAG	11600 fluorescence intensity (a.u.)

Part of the list above, reformatted:
Sequence | binding signal
ATTTTACAATGTGTAGTATGCATTCGTTGTCAATCTTTCTCGGAGTCACCTAGTGCAG | 3650 fluorescence intensity (a.u.)
ATATGCAGGGCCGAATGTGGAAGACGATATATGCGCTTAACGGAGTCACCTAGTGCAG | 22100 fluorescence intensity (a.u.)
TCCCAATCAAATTGCCATGTAAGGGCCACGTTGGGACGAACGGAGTCACCTAGTGCAG | 4600 fluorescence intensity (a.u.)
CTCGGCCGCGGCCGGGGCACCGGAAGAGGGACCTCAGCGGCGGAGTCACCTAGTGCAG | 26500 fluorescence intensity (a.u.)
